In PMC6838198, “Insights into the assembly and architecture of a Staufen-mediated mRNA decay (SMD)-competent mRNP” (Nature Communications, 2019):
These are yes or no findings as the source states them, for the method shown. For part of these data: In cells and extracts the contact can be indirect. Some entries that bind do so weakly or less than the wild type. For part of these data: Tags and fused reporters may be left off the sequences shown.

The chains behind the UniProt entries cited, without tags or fusion partners. Where a name states a change or a piece, a line headed by the entry shows the natural chain unless it says otherwise.
UniProt O95793: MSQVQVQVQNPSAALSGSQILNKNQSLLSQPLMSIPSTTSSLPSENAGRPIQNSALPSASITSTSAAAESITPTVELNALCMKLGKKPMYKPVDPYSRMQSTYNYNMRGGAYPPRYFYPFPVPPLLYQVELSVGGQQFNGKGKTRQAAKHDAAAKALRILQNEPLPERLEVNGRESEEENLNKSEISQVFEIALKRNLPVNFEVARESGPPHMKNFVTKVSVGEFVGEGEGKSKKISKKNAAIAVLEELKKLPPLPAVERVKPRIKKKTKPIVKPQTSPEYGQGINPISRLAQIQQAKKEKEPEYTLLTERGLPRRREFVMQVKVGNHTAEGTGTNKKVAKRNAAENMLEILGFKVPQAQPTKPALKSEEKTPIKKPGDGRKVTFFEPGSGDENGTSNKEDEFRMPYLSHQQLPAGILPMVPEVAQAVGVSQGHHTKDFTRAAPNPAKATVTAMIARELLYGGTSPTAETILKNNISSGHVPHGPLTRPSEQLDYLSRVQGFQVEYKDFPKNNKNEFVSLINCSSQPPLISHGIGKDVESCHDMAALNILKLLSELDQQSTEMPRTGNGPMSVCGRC
UniProt Q9HAU5: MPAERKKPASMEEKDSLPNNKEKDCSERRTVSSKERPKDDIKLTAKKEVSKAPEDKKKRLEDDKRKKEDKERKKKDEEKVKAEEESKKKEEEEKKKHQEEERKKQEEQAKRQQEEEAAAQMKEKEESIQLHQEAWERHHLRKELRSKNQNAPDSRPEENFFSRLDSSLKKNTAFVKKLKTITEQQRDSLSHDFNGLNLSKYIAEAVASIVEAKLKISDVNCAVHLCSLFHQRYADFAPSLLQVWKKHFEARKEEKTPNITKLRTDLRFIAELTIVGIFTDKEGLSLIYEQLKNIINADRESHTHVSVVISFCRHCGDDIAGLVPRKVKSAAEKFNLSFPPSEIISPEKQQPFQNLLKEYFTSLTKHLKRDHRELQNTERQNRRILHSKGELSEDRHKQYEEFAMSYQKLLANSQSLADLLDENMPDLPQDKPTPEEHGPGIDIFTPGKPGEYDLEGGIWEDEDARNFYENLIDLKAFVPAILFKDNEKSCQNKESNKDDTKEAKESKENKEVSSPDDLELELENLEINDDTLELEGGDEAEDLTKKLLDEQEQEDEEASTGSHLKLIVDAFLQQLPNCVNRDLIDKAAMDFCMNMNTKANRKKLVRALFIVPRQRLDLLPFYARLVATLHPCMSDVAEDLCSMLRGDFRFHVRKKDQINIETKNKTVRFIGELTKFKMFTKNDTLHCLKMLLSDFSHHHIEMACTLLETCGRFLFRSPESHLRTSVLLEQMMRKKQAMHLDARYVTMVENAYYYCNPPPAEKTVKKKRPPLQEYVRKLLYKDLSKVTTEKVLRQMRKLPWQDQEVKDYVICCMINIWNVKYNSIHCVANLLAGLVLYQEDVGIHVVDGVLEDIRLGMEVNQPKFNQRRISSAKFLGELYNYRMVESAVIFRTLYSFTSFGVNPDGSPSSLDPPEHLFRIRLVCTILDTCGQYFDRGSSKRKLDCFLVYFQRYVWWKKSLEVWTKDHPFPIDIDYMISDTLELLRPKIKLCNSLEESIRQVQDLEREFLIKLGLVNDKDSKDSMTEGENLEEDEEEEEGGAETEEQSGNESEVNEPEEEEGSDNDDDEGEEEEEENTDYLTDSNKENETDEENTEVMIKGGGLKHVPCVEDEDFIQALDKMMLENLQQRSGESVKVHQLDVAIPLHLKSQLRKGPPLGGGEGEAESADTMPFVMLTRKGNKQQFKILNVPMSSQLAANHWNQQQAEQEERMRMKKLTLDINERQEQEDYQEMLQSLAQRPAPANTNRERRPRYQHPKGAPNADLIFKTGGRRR

Assays:
[1] = target: Flag-Stau1, full length (human) (UniProt O95793); assay: co-IP; Flag-Stau1, HA-UPF1 and HA-UPF2 co-transfected in HEK 293T; RIPA lysate with RNase A (60 µg/mL); anti-Flag M2 resin, 4 °C 1.5 h; anti-HA and anti-Flag blots
[2] = target: GST-Stau1, full length (human) (UniProt O95793); assay: pull-down; GST-tagged bait and prey mixed in equal amounts, 4 °C 16 h, Glutathione Sepharose; 20 mM HEPES pH 7.5, 150 mM NaCl, 10% glycerol, 0.1% NP-40; eluted with 20 mM glutathione, SDS-PAGE and Coomassie; bands quantified with ImageJ; both purified

## HA-UPF2, full length (from UniProt Q9HAU5 1-1272)
[1]
  binding: binds

## UPF2 (126–1227) (from UniProt Q9HAU5 126-1227) (domain or fragment)
[2]
  binding: binds

B1: HA-UPF1, full length (protein, UniProt Q92900-2 1-1118)
chain: MSVEAYGPSSQTLTFLDTEEAELLGADTQGSEFEFTDFTLPSQTQTPPGGPGGPGGGGAGGPGGAGAGAAAGQLDAQVGPEGILQNGAVDDSVAKTSQLLAELNFEEDEEDTYYTKDLPIHACSYCGIHDPACVVYCNTSKKWFCNGRGNTSGSHIVNHLVRAKCKEVTLHKDGPLGETVLECYNCGCRNVFLLGFIPAKADSVVVLLCRQPCASQSSLKDINWDSSQWQPLIQDRCFLSWLVKIPSEQEQLRARQITAQQINKLEELWKENPSATLEDLEKPGVDEEPQHVLLRYEDAYQYQNIFGPLVKLEADYDKKLKESQTQDNITVRWDLGLNKKRIAYFTLPKTDSDMRLMQGDEICLRYKGDLAPLWKGIGHVIKVPDNYGDEIAIELRSSVGAPVEVTHNFQVDFVWKSTSFDRMQSALKTFAVDETSVSGYIYHKLLGHEVEDVIIKCQLPKRFTAQGLPDLNHSQVYAVKTVLQRPLSLIQGPPGTGKTVTSATIVYHLARQGNGPVLVCAPSNIAVDQLTEKIHQTGLKVVRLCAKSREAIDSPVSFLALHNQIRNMDSMPELQKLQQLKDETGELSSADEKRYRALKRTAERELLMNADVICCTCVGAGDPRLAKMQFRSILIDESTQATEPECMVPVVLGAKQLILVGDHCQLGPVVMCKKAAKAGLSQSLFERLVVLGIRPIRLQVQYRMHPALSAFPSNIFYEGSLQNGVTAADRVKKGFDFQWPQPDKPMFFYVTQGQEEIASSGTSYLNRTEAANVEKITTKLLKAGAKPDQIGIITPYEGQRSYLVQYMQFSGSLHTKLYQEVEIASVDAFQGREKDFIILSCVRANEHQGIGFLNDPRRLNVALTRARYGVIIVGNPKALSKQPLWNHLLNYYKEQKVLVEGPLNNLRESLMQFSKPRKLVNTINPGARFMTTAMYDAREAIIPGSVYDRSSQGRPSSMYFQTHDQIGMISAGPSHVAAMNIPIPFNLVMPPMPPPGYFGQANGPAAGRGTPKGKTGRGGRQKNRFGLPGPSQTNLPNSQASQDVASQPFSQGALTQGYISMSQPSQMSQPGLSQPELSQDSYLGDEFKSQIDVALSQDSTYQGERAYQHGGVTGLSQY
[1]
  binding: binds
